According to patent publication US20240415967A1, “DEGRADABLE NEAR-INFRARED PHOTOSENSITIZERS, PREPARATION METHODS, APPLICATIONS THEREOF” (BEIJING INSTITUTE OF COLLABORATIVE INNOVATION, priority 2021, published 2024):

How the values were obtained:
[1] = test system: Hela cells; assay: Cell fluorescence imaging with lysosomal green fluorescence probe; type: cell-based, human; settings: 10 μM
[2] = Detection of depth of in vivo fluorescence imaging; design: species or system BALB/C nude mice; settings: 0.2 mg/kg subcutaneous, excitation 710 nm, collection 750 nm
[3] = test system: Hela cells; assay: Photodegradation process of a photosensitizer in cells (confocal fluorescence imaging); type: cell-based, human; settings: 10 μM, 700 nm 10 mW/cm^2
[4] = Photodegradation process of a photosensitizer at an animal level (in vivo fluorescence imaging of tumor); design: species or system BALB/C nude mice; settings: 0.2 mg/kg in situ, 700 nm 100 mW/cm^2

C[N+](C)(C)c1c(F)c(F)c(C2=C3C(=O)OC4=[N+]3[Zn]35[n]6c2ccc6-c2c(oc6c(F)c([N+](C)(C)C)c(F)c(F)c26)[N+]3=c2oc3c(F)c([N+](C)(C)C)c(F)c(F)c3c2=c2ccc([n]25)=C4c2c(F)c(F)c([N+](C)(C)C)c(F)c2F)c(F)c1F (centres unmarked) [target product]
fluorescence signal in cells ([1]; 12 h incubation, excitation 700 nm, 715 nm high-pass, FIG. 19): relatively strong fluorescence signal | subcellular localization (overlap with lysosomal probe) ([1]; FIG. 20): may be in the lysosome | in vivo fluorescence signal at a depth of 1 mm [2]: strong fluorescence signal | in vivo fluorescence signal at a depth of 4 mm [2]: slightly attenuated | in vivo fluorescence signal at a depth of 7 mm [2]: further weakened | in vivo fluorescence signal at a depth of 10 mm [2]: still effectively detected | fluorescence signal in cells, irradiation for 0 min [3]: relatively strong fluorescence signal | fluorescence signal in cells, irradiation for 5 min [3]: significantly weakened | fluorescence signal in cells, irradiation for 10 min [3]: completely quenched | fluorescence signal in the mouse tumor, irradiation for 0 min [4]: relatively strong fluorescence signal | fluorescence signal in the mouse tumor, irradiation for 5 min [4]: significantly weakened
